Common to all, as to experiment: proximity labelling; MitoID: GTPase-BirA*-HA-MAO chimera on mitochondria of transiently transfected HEK293T cells, 50 uM biotin 18 h, streptavidin beads, mass spectrometry, biological triplicates; hits by WD scores and volcano plots against the GDP-locked forms
In assay [1] the target is Rab5A(S34N)-BirA*-HA-MAO (human) (UniProt P20339).
Assay [2] addresses Rab5A(Q79L)-BirA*-HA-MAO (human) (UniProt P20339).
Assay [3] deals with T1, Rab9A(Q66L)-BirA*-HA-MAO (human) (UniProt P51151).
T1 sequence: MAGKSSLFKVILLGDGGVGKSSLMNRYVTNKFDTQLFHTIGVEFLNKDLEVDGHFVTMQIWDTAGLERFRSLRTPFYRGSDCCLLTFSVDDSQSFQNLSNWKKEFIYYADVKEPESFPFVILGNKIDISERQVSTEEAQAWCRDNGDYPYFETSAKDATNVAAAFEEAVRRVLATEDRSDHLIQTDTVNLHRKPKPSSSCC

Sequences of proteins named here, by UniProt entry; tags and fusion partners are left off. A change or cut given only in a name is not applied to a line headed by its entry. A line that says so, or that is headed by a name, gives the form on record, which may keep a tag or linker.
Rab5A(S34N)-BirA*-HA-MAO (P20339, form named): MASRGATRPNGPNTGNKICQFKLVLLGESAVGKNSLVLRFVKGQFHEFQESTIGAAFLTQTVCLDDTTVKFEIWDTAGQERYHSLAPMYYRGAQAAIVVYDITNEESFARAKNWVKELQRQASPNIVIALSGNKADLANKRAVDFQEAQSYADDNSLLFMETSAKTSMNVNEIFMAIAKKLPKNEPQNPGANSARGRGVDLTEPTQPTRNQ
Rab5A(Q79L)-BirA*-HA-MAO (P20339, form named): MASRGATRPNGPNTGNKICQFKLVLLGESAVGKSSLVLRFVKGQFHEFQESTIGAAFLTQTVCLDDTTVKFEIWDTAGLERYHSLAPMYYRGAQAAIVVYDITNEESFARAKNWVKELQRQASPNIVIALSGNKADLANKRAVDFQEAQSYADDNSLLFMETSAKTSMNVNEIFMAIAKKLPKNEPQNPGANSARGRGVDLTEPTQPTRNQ

This passage reports binding results from paper PMC6639074.

Results are given in words; binding and its absence hold for the method and conditions named. Binding seen in cells or lysates may run through a third protein. Here binding means that the protein was enriched with, or labelled near, the bait; the list need not be complete. For part of these data: Sequences can lack the tags named with a protein.

B1: SPAG9 (protein, UniProt O60271 1-1321)
chain: MELEDGVVYQEEPGGSGAVMSERVSGLAGSIYREFERLIGRYDEEVVKELMPLVVAVLENLDSVFAQDQEHQVELELLRDDNEQLITQYEREKALRKHAEEKFIEFEDSQEQEKKDLQTRVESLESQTRQLELKAKNYADQISRLEEREAELKKEYNALHQRHTEMIHNYMEHLERTKLHQLSGSDQLESTAHSRIRKERPISLGIFPLPAGDGLLTPDAQKGGETPGSEQWKFQELSQPRSHTSLKVSNSPEPQKAVEQEDELSDVSQGGSKATTPASTANSDVATIPTDTPLKEENEGFVKVTDAPNKSEISKHIEVQVAQETRNVSTGSAENEEKSEVQAIIESTPELDMDKDLSGYKGSSTPTKGIENKAFDRNTESLFEELSSAGSGLIGDVDEGADLLGMGREVENLILENTQLLETKNALNIVKNDLIAKVDELTCEKDVLQGELEAVKQAKLKLEEKNRELEEELRKARAEAEDARQKAKDDDDSDIPTAQRKRFTRVEMARVLMERNQYKERLMELQEAVRWTEMIRASRENPAMQEKKRSSIWQFFSRLFSSSSNTTKKPEPPVNLKYNAPTSHVTPSVKKRSSTLSQLPGDKSKAFDFLSEETEASLASRREQKREQYRQVKAHVQKEDGRVQAFGWSLPQKYKQVTNGQGENKMKNLPVPVYLRPLDEKDTSMKLWCAVGVNLSGGKTRDGGSVVGASVFYKDVAGLDTEGSKQRSASQSSLDKLDQELKEQQKELKNQEELSSLVWICTSTHSATKVLIIDAVQPGNILDSFTVCNSHVLCIASVPGARETDYPAGEDLSESGQVDKASLCGSMTSNSSAETDSLLGGITVVGCSAEGVTGAATSPSTNGASPVMDKPPEMEAENSEVDENVPTAEEATEATEGNAGSAEDTVDISQTGVYTEHVFTDPLGVQIPEDLSPVYQSSNDSDAYKDQISVLPNEQDLVREEAQKMSSLLPTMWLGAQNGCLYVHSSVAQWRKCLHSIKLKDSILSIVHVKGIVLVALADGTLAIFHRGVDGQWDLSNYHLLDLGRPHHSIRCMTVVHDKVWCGYRNKIYVVQPKAMKIEKSFDAHPRKESQVRQLAWVGDGVWVSIRLDSTLRLYHAHTYQHLQDVDIEPYVSKMLGTGKLGFSFVRITALMVSCNRLWVGTGNGVIISIPLTETNKTSGVPGNRPGSVIRVYGDENSDKVTPGTFIPYCSMAHAQLCFHGHRDAVKFFVAVPGQVISPQSSSSGTDLTGDKAGPSAQEPGSQTPLKSMLVISGGEGYIDFRMGDEGGESELLGEDLPLEPSVTKAERSHLIVWQVMYGNE
For the molecule B1, the binding entry in assay [1] and in assay [2] was “binds” throughout.

B2: GRIPAP1/GRASP-1 (protein, UniProt Q4V328 1-841)
chain: MAQALSEEEFQRMQAQLLELRTNNYQLSDELRKNGVELTSLRQKVAYLDKEFSKAQKALSKSKKAQEVEVLLSENEMLQAKLHSQEEDFRLQNSTLMAEFSKLCSQMEQLEQENQQLKEGAAGAGVAQAGPLVDGELLRLQAENTALQKNVAALQERYGKEAGKFSAVSEGQGDPPGGLAPTVLAPMPLAEVELKWEMEKEEKRLLWEQLQGLESSKQAETSRLQEELAKLSEKLKKKQESFCRLQTEKETLFNDSRNKIEELQQRKEADHKAQLARTQKLQQELEAANQSLAELRDQRQGERLEHAAALRALQDQVSIQSADAQEQVEGLLAENNALRTSLAALEQIQTAKTQELNMLREQTTGLAAELQQQQAEYEDLMGQKDDLNSQLQESLRANSRLLEQLQEIGQEKEQLTQELQEARKSAEKRKAMLDELAMETLQEKSQHKEELGAVRLRHEKEVLGVRARYERELRELHEDKKRQEEELRGQIREEKARTRELETLQQTVEELQAQVHSMDGAKGWFERRLKEAEESLQQQQQEQEEALKQCREQHAAELKGKEEELQDVRDQLEQAQEERDCHLKTISSLKQEVKDTVDGQRILEKKGSAALKDLKRQLHLERKRADKLQERLQDILTNSKSRSGLEELVLSEMNSPSRTQTGDSSSISSFSYREILREKESSAVPARSLSSSPQAQPPRPAELSDEEVAELFQRLAETQQEKWMLEEKVKHLEVSSASMAEDLCRKSAIIETYVMDSRIDVSVAAGHTDRSGLGSVLRDLVKPGDENLREMNKKLQNMLEEQLTKNMHLHKDMEVLSQEIVRLSKECVGPPDPDLEPGETS
B2: the binding entry in assay [3] was “binds”.
